Results deposited as PubChem BioAssay AID1259405 (NCATS, 2018).
Here is an unselected part of about 50,000 reagents. Over the whole deposit, about 4,000 (8%) are marked active. 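Mouse siRNA library applied to hamster cells; one well for each siRNA.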 The numbers tell different reagents against one gene apart. Reagent sequences are not shown.

- Test: 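Mouse-designed siRNAs used to find CHO productivity engineering targets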 (primary screen)
- Cells: Chinese hamster CHO-K1 ovary cells with stable secreted eGFP expression
- Reagents: single siRNA against mouse genes, 0.8 pmol siRNA per well (2 µl of 400 nM stock)
- Duration: 3 days
- Read-out: 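Per-well intracellular GFP measured by laser scanning cytometry, plus viability from ATP luminescence, each relative to plate median of non-targeting control wells, in %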
- Reading the numbers: GFP, % of control: higher = more GFP per well, higher productivity; viability (ATP), % of control: higher = more viable cells (more ATP)
- Rule for the call: 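a knock-down is called active if GFP reaches 120% or more of non-targeting control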

Rassf4 #1
- GFP, % of control: 55.8
- viability (ATP), % of control: 80.7
- activity call: inactive

Rassf4 #2
- GFP, % of control: 89.3
- viability (ATP), % of control: 75.2
- activity call: inactive

Rassf4 #3
- GFP, % of control: 52.7
- viability (ATP), % of control: 54.7
- activity call: inactive

Mta2 #1
- GFP, % of control: 59.6
- viability (ATP), % of control: 79
- activity call: inactive

Mta2 #2
- GFP, % of control: 62.7
- viability (ATP), % of control: 65.7
- activity call: inactive

Mta2 #3
- GFP, % of control: 69.9
- viability (ATP), % of control: 75.1
- activity call: inactive

Nr1h3 #1
- GFP, % of control: 63.6
- viability (ATP), % of control: 72.4
- activity call: inactive

Nr1h3 #2
- GFP, % of control: 90.7
- viability (ATP), % of control: 80.9
- activity call: inactive

Olfm5 #1
- GFP, % of control: 87.6
- viability (ATP), % of control: 94.6
- activity call: inactive

Olfm5 #2
- GFP, % of control: 39
- viability (ATP), % of control: 70.7
- activity call: inactive

Olfm5 #3
- GFP, % of control: 62.1
- viability (ATP), % of control: 70.8
- activity call: inactive

Lrrc39 #1
- GFP, % of control: 46
- viability (ATP), % of control: 46.9
- activity call: inactive

Lrrc39 #2
- GFP, % of control: 61.2
- viability (ATP), % of control: 78.1
- activity call: inactive

Lrrc39 #3
- GFP, % of control: 69.4
- viability (ATP), % of control: 96.9
- activity call: inactive

Zdhhc24 #1
- GFP, % of control: 62.1
- viability (ATP), % of control: 61.9
- activity call: inactive

Zdhhc24 #2
- GFP, % of control: 47.8
- viability (ATP), % of control: 69
- activity call: inactive

Zdhhc24 #3
- GFP, % of control: 40.4
- viability (ATP), % of control: 86.3
- activity call: inactive

Copied from the list:
Entry of Rassf4 #3 under “GFP, % of control”: 52.7
Entry for Mta2 #2 under “activity call”: inactive
